According to doi:10.1101/2024.08.29.610253:
Results are given in words; binding and its absence hold for the method and conditions named. Binding seen in cells or lysates may run through a third protein. Some entries that bind do so weakly or less than the wild type.

Sequences of proteins named here, by UniProt entry; tags and fusion partners are left off. A change or cut given only in a name is not applied to a line headed by its entry. A line that says so, or that is headed by a name, gives the form on record, which may keep a tag or linker.
UniProt O75334: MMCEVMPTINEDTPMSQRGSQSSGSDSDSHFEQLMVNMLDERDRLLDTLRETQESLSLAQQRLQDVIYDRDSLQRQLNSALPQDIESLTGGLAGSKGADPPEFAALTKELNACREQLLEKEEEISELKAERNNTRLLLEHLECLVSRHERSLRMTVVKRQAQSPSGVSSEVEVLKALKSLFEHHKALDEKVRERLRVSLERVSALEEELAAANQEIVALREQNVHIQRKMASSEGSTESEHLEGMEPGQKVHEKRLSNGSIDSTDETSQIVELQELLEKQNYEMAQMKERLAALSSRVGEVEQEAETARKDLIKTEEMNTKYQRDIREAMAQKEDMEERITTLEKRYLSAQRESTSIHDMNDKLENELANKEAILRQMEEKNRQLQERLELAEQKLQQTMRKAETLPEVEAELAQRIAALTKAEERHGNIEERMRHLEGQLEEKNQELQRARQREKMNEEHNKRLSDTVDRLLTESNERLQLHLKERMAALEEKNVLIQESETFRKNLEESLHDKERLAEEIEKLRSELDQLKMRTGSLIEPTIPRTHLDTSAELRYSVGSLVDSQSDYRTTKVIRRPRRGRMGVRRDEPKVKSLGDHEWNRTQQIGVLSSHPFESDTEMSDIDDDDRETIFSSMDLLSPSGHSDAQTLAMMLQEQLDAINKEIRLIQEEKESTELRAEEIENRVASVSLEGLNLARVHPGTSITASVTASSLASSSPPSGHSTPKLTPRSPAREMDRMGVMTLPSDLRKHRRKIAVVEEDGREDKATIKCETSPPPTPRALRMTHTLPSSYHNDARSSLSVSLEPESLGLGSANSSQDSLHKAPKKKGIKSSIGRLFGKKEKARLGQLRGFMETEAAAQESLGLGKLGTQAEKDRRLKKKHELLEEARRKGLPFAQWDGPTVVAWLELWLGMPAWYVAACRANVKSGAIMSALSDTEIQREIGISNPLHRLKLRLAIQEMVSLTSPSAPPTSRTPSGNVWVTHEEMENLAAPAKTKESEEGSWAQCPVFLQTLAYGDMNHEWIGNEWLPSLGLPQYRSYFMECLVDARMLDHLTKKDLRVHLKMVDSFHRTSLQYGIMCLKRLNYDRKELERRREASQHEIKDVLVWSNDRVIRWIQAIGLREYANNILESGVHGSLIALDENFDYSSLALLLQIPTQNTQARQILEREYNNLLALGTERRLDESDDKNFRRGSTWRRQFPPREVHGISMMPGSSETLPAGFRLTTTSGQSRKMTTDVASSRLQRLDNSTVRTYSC
liprin-α2 ΔCC2N (O75334, form named): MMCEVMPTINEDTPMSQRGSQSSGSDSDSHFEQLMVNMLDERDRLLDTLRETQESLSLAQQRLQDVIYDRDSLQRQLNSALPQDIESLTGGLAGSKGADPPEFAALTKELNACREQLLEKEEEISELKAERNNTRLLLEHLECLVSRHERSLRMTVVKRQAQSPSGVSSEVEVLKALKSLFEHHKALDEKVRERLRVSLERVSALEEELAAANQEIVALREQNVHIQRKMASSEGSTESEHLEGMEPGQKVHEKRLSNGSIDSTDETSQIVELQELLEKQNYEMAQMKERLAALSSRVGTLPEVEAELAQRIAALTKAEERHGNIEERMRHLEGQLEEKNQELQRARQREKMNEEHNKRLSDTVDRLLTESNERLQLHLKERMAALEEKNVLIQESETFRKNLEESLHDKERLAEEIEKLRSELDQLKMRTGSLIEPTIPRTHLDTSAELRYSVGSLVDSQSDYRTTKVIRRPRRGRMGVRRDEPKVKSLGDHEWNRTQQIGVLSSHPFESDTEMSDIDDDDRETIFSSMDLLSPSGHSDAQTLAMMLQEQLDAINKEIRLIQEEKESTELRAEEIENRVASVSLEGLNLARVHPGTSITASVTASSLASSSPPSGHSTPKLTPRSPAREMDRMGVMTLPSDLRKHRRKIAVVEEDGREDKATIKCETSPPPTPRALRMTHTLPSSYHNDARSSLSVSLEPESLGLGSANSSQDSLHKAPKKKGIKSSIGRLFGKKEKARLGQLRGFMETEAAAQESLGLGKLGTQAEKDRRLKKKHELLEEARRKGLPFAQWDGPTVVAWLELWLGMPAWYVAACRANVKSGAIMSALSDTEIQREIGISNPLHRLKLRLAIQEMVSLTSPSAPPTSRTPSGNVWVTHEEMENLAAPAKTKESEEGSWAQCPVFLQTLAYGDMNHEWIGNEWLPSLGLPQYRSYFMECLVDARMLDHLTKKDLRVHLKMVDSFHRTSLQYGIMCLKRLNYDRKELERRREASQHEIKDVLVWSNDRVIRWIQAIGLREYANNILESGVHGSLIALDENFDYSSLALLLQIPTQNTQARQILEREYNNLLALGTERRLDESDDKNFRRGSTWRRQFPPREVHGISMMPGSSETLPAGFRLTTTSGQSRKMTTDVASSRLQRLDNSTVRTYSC

What follows are substances tested against T1, ELKS1 (rat) (UniProt Q811U3) (assay: co-IP).
T1 sequence: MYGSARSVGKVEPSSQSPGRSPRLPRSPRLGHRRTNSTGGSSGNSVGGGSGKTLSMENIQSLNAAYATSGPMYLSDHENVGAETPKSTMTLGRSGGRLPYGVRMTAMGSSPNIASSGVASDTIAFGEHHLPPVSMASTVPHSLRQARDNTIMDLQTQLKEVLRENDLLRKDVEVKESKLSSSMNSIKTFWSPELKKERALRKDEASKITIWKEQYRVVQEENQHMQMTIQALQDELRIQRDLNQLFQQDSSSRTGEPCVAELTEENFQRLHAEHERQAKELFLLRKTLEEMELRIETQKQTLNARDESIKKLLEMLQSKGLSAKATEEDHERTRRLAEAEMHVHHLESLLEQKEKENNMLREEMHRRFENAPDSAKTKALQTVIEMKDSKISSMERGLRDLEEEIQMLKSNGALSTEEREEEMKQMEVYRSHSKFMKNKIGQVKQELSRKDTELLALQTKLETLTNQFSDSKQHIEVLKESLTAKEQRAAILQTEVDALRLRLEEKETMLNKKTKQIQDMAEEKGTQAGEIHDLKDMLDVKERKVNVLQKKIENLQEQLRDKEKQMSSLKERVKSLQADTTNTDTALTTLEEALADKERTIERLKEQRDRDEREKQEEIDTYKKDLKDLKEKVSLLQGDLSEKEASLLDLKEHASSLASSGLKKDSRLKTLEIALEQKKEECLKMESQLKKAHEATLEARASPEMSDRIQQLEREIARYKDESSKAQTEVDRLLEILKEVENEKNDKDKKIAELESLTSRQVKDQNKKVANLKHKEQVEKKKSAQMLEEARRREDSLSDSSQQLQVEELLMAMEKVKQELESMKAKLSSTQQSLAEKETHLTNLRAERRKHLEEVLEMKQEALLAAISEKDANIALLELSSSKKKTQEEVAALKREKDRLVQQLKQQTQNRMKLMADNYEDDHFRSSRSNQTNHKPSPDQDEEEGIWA

binding, binds:
liprin-α2 (wild type, co-immunoprecipitation) (from UniProt O75334 1-1257)
liprin-α2 E344R (from UniProt O75334 1-1257)
liprin-α2 R346E (from UniProt O75334 1-1257)
liprin-α2 ΔCC2N (from UniProt O75334 1-1257)
